PubChem BioAssay AID1259254, NCATS | 2017

- Purpose: 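Finding genes that stop cells copying their DNA twice in one cycle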 (primary screen)
- Cell system: human HCT116 colorectal cancer cells
- Reagent: single siRNA against human genes
- Time to read-out: 3 days
- Measured: 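Nuclei stained with Hoechst and imaged; cell-cycle phase assigned by DNA content; G2 share scaled per plate, non-targeting siRNA 0%, GMNN siRNA 100%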
- Reading the numbers: G2 robust z-score and G2 cells, % of GMNN control: higher = more G2 cells, more excess DNA replication
- Active means: 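Active siRNAs have a G2 robust z of 5 or more median absolute deviations over the median, which in these data means about 38% or higher of GMNN control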
In all, the deposit lists about 59,000 reagents; below is a part drawn at random. Over the whole deposit, about 1,550 (2.6%) were called active. 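G2 share is only a proxy for re-replication; each gene was hit by three separate siRNAs, and active genes were retested.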 Unmarked entries are inactive. Further read-outs or replicates are left out here. Not stated in the record: the amount of reagent.

| gene knocked down | PubChem SID | G2 robust z-score | G2 cells, % of GMNN control |
| --- | --- | --- | --- |
| WFIKKN2 | SID160756252 | 4.89 | 37.4 |
| WFIKKN2 | SID160756254 | -0.933 | -3.6 |
| WFIKKN2 | SID160756255 | -0.38 | 0.294 |
| HLA-DMB | SID160774982 | -0.391 | 0.218 |
| HLA-DMB | SID160774984 | 0.0928 | 3.62 |
| HLA-DMB | SID160774985 | 0.505 | 6.52 |
| WFDC1 | SID160746791 | 1.97 | 16.8 |
| WFDC1 | SID160746792 | 0.102 | 3.68 |
| WFDC1 | SID160746793 | 5.79 (active) | 43.7 |
| CCN1 | SID160775648 | 0.98 | 9.86 |
| CCN1 | SID160775649 | -0.269 | 1.08 |
| CCN1 | SID160775650 | 1.57 | 14 |
| NMNAT2 | SID160735343 | -0.537 | -0.807 |
| NMNAT2 | SID160735344 | 2.52 | 20.7 |
| NMNAT2 | SID160735345 | -1.16 | -5.19 |
| SERTAD4 | SID160744978 | 0.941 | 9.59 |
| SERTAD4 | SID160744979 | 0.546 | 6.81 |
| SERTAD4 | SID160744980 | 0.0366 | 3.22 |
| C1S | SID160729603 | -0.342 | 0.561 |
| C1S | SID160729614 | -1.06 | -4.48 |
| C1S | SID160729623 | 0.0983 | 3.66 |
| NUCLEOLIN | SID160777823 | -0.567 | -1.02 |
| NUCLEOLIN | SID160777824 | -0.981 | -3.94 |
| NUCLEOLIN | SID160777825 | 2.26 | 18.9 |
| FAM234B | SID160746409 | -0.297 | 0.877 |
| FAM234B | SID160746411 | -0.21 | 1.49 |
| FAM234B | SID160746412 | 1.99 | 17 |
| CDK9 | SID160741018 | 0.823 | 8.76 |
| CDK9 | SID160741028 | -0.381 | 0.286 |
| CDK9 | SID160741039 | -0.353 | 0.482 |

Entries above whose target name starts with H or h:
| gene knocked down | PubChem SID | G2 robust z-score | G2 cells, % of GMNN control |
| --- | --- | --- | --- |
| HLA-DMB | SID160774982 | -0.391 | 0.218 |
| HLA-DMB | SID160774984 | 0.0928 | 3.62 |
| HLA-DMB | SID160774985 | 0.505 | 6.52 |
